Laboratory results as given in patent US20190322748A1.
These are yes or no findings as the source states them, for the method shown. Binding can be weak; no strength is given.

Biological target: biotinylated cynoPD1-ECD-Biotin (cynomolgus)
Experiment: ELISA, cynomolgus cross-reactivity

B1: chimeric PD1-0103 (antibody, human IgG1, V domains shown)
VH: EVILVESGGGLVKPGGSLKLSCAASGFSFSSYTMSWVRQTPEKRLDWVATISGGGRDIYYPDSVKGRFTISRDNAKNTLYLEMSSLMSEDTALYYCVLLTGRVYFALDSWGQGTSVTVSS
VL: KIVLTQSPASLPVSLGQRATISCRASESVDTSDNSFIHWYQQRPGQSPKLLIYRSSTLESGVPARFSGSGSRTDFTLTIDPVEADDVATYYCQQNYDVPWTFGGGTKLEIK
- binding: binds
